Measured values: PubChem BioAssay AID1347076 (National Center for Advancing Translational Sciences (NCATS), 2019)
The campaign covered roughly 400,000 compounds. About 13,000 (3.2%) were called active. Inconclusive means that the source gave no clear call. Such entries were picked first, then a sample of the others. Calls come from the whole dose curve; as a rule, active = well fitted cell-killing curve with a large enough effect; inconclusive = small, poorly fitted or top-dose-only effect, or effect the other way; inactive = flat fitted curve, though single readings scatter. A potency beside an inconclusive call is a rough fit, not a confirmed value.
% is set by controls: 0 for no effect and ±100 for the full control effect; potency is the fitted concentration of half-maximal effect.

Experiment: qHTS assay for MDR1-selective chemotherapeutics: Primary screen using the drug-selected MDR subline cells KB-V1; note: nearly all actives have a fitted effect of over 60% in size
Settings: KB-V1 MDR cells viability, CellTiter-Glo, 72 h; activity change, negative = cytotoxicity: at 46.1 µM (top of the series)
Summary of the method: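 KB-V1 MDR subline cells in DMEM (phenol-red free, 10% FBS) exposed to compounds in qHTS concentration series for 72 h at 37 degrees C. Viability read by CellTiter-Glo luminescence; concentration-effect curves fitted after normalization and correction.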
In the case of COc1cc(C(=O)NCc2nnc(SCC(=O)Nc3cc(C)cc(C)c3)o2)cc(OC)c1OC, the Potency is reported as inconclusive: 7.31 µM [rising, partial curve, poor fit].
In the case of CCOC(=O)N1CCN(C(=O)c2cccc(NC3=NC4CS(=O)(=O)CC4S3)c2)CC1 (stereo unspecified), the Potency is reported as inconclusive: 29.1 µM [rising, single point].
With O=C(Nc1ccc2[nH]c(=O)[nH]c2c1)C(F)(F)F the Potency was inconclusive: 29.1 µM [rising, single point].
In the case of O=C(CN1c2cccc3cccc(c23)S1(=O)=O)Nc1ccccc1Br, the Potency is reported as inconclusive: 29.1 µM [cytotoxic, single point].
With CCNc1c(NS(=O)(=O)c2ccc([N+](=O)[O-])cc2)c(=O)oc2ccccc12 the Potency was “inactive”.
In the case of CCOC(=O)c1c(NC(=O)c2ccc(OC)cc2)sc2c1CCCCC2, the Potency is reported as “inactive”.
For CCOC1CCCc2oc(-c3ccc(N(C)C)cc3)c(C(=O)OC)c21 (stereo unspecified), the Potency was active: 8.2 µM.
In the case of Cc1ccc(-n2ncc(C(=O)N3CCCCC3)c2C2CCN(C(=O)OC(C)(C)C)CC2)c(C)c1, the Potency is reported as “inactive”.
In the case of COc1ccc(-n2c(=O)[nH]c3cc(C(=O)NCCc4ccccc4)ccc3c2=O)cc1OC, the Potency is reported as “inactive”.
For CCC(Sc1nnc(C)n2c1cc1occc12)C(=O)Nc1ccccc1OC (stereo unspecified), the Potency was “inactive”.
In the case of CCN(Cc1ccccc1)C(=O)c1cnn(-c2ccc(F)cc2)c1-n1cccc1, the Potency is reported as inconclusive: 8.2 µM [cytotoxic, partial curve].
In the case of Cc1cc2ccccc2n2c(SCC(=O)NCC3CCCO3)nnc12 (stereo unspecified), the Potency is reported as “inactive”.
With CCCn1c2ccccc2c2nnc(SCC(=O)Nc3cccc(C(C)=O)c3)nc21 the Potency was inconclusive: 0.103 µM [cytotoxic, full curve].
In the case of Cc1ccc(Cl)c(NC(=O)COC(=O)c2nn(C)c(=O)c3ccccc23)c1Cl, the Potency is reported as inconclusive: 29.1 µM [rising, single point].
With CCNc1nc(NC(N)=S)nc(NC(C)(C)C)n1 the Potency was inconclusive: 20.6 µM [cytotoxic, single point].
For CC(=O)c1sc(N2C(=O)c3oc4ccccc4c(=O)c3C2c2ccc(C)cc2)nc1C (stereo unspecified), the Potency was “inactive”.
With OC(CNCCC(c1ccccc1)c1ccccc1)COc1ccccc1 (stereo unspecified) the Potency was inconclusive: 3.66 µM [cytotoxic, partial curve, poor fit].
For Cc1ccc(C(C)C)c(OCC(O)CN2CCc3ccccc3C2)c1 (stereo unspecified), the Potency was inconclusive: 2.59 µM [cytotoxic, full curve, poor fit].
In the case of O=C(N/N=C\c1cccc([N+](=O)[O-])c1O)C1COc2ccccc2O1 (stereo unspecified), the Potency is reported as “inactive”.
With Cc1ccc(Cl)cc1N1CCN(S(=O)(=O)c2ccc3c(c2)CCN3C(=O)C2CCC2)CC1 the Potency was “inactive”.
For Cc1cc(OC(=O)c2ccc(Cl)cc2Cl)nc(C)n1, the Potency was “inactive”.
For COC(=O)c1ccccc1NC(=O)Nc1ccc(C)cn1, the Potency was inconclusive: 20.6 µM [rising, partial curve, poor fit].
With COc1ccccc1CC(NC(C)=O)C(=O)NC1CCN(C(=O)Nc2ccc(F)cc2)CC1 (stereo unspecified) the Potency was inconclusive: 11.6 µM [rising, partial curve, poor fit].
In the case of CN1CCN(C(=O)/C=C/c2ccccc2)CC1, the Potency is reported as inconclusive: 3.66 µM [rising, partial curve, poor fit].
With Cc1ccnc(NS(=O)(=O)c2ccc(NC(=O)Cc3ccc(Br)cc3)cc2)n1 the Potency was inconclusive: 18.4 µM [rising, single point].
In the case of Cc1ccc(-c2nn(-c3ccccc3)cc2NC(=O)CCl)cc1, the Potency is reported as inconclusive: 29.1 µM [cytotoxic, single point].
For CCc1ccc(N2CC(C(=O)Nc3ccc(C)c(S(=O)(=O)N4CCOCC4)c3)CC2=O)cc1 (stereo unspecified), the Potency was active: 23.1 µM.
In the case of CCOC(=O)c1cnc(SCc2cccc3ccccc23)nc1N, the Potency is reported as active: 18.4 µM.
With COCCNC(=S)N(CCc1c(C)[nH]c2ccc(Cl)cc12)Cc1cccs1 the Potency was inconclusive: 2.91 µM [cytotoxic, partial curve, poor fit].
For CC1(Cc2ccc(Cl)c(Cl)c2)C(=O)Nc2ccc(S(=O)(=O)NC3CCCCC3)cc21 (stereo unspecified), the Potency was active: 18.4 µM.
With CN1C2CCC1/C(=C\c1ccccc1F)C(=O)/C2=C/c1ccccc1F the Potency was active: 13 µM.
In the case of O=[N+]([O-])c1cccc(/C=N/Nc2cc(Cl)nc(-c3ccccc3)n2)c1, the activity change, negative = cytotoxicity is reported as inconclusive: -34.3% [cytotoxic].
With O=C(Cn1ncc2c([nH]c3ccccc32)c1=O)Nc1ccc(CN2CCCCC2)cc1 the Potency was inconclusive: 11.6 µM [rising, single point].
In the case of COc1ccc(CNC(=O)COc2cc(=O)n(C)c3ccccc23)cc1, the Potency is reported as inconclusive: 29.1 µM [cytotoxic, single point].
For COc1ccccc1N(CC(=O)NCCc1ccccc1)C(=O)CCC(=O)Nc1cc(C)ccn1, the Potency was inconclusive: 18.4 µM [cytotoxic, single point].
With COc1cc(C2C(C#N)=C(N)Oc3cc(N)ccc32)cc(OC)c1OC (stereo unspecified) the Potency was inconclusive: 1.03 µM [cytotoxic, full curve, poor fit].
In the case of CCCn1c(=N)c(C(=O)NCc2ccc3c(c2)OCO3)cc2c(=O)n3cccc(C)c3nc21, the Potency is reported as “inactive”.
With Cc1coc2c1C(=O)C(=O)c1c-2ccc2c(C)cccc12 the Potency was active: 9.2 µM.
With CCC1(CC)NC(=S)NC1=S the Potency was inconclusive: 14.6 µM [rising, partial curve, poor fit].
With COc1ccccc1C(CNC(=O)COc1ccccc1C)N1CCCC1 (stereo unspecified) the Potency was inconclusive: 25.9 µM [cytotoxic, single point].
In the case of O=C(NCc1ccccn1)C(=O)NCC1OCCN1S(=O)(=O)c1ccc(F)cc1 (stereo unspecified), the Potency is reported as “inactive”.
For Cc1cc(C)c2c(N)c(S(=O)c3ccc(C(C)(C)C)cc3)sc2n1 (stereo unspecified), the Potency was “inactive”.
In the case of CCOC(=O)C1=NNC(C(=O)c2ccc(Cl)cc2)C1c1ccccc1 (stereo unspecified), the Potency is reported as inconclusive: 14.6 µM [cytotoxic, partial curve].
With COc1ccccc1Nc1ccc(Nc2ccccc2OC)nn1 the Potency was inconclusive: 18.4 µM [cytotoxic, partial curve].
With Cc1cc(C)nc(N2CCCC(C(=O)NCCc3cccc(F)c3)C2)n1 (stereo unspecified) the Potency was active: 18.4 µM.
For C=C(C)c1cccc(C(C)(C)NC(=O)NNC(=O)c2ccccc2O)c1, the Potency was inconclusive: 20.6 µM [cytotoxic, single point].
